We go through one sequence from publication PMC10903759 (Journal of Genetic Engineering & Biotechnology, 2024).

In this assay the test system is leaf rust (Puccinia triticina, CCDS-96-14-1 isolate) urediniospores. It counts as cell-based.

Regarding “AQRCGDQARGAKCPNCLCCGKYGFCGSGDAYCGAGSCQSQCRGC [WAMP-1a]”, the “germination rate of urediniospores” value was 87.63 % ± 0.90.
